Substitutions are numbered along the chain they refer to. These are yes or no findings as the source states them, for the method shown. Some binding calls cover weakened binding; strength is not graded here.
B1: humanized Y1238 hz1 (hz-HC1/hz-LC1) (antibody, IgG1, V domains shown)
VH: QVQLVQSGAEVKKPGASVKVSCKASGYAFTNYLIEWVRQAPGQGLEWMGVINPGSGGTNYNEKFKGRVTMTRDTSISTAYMELSRLRSDDTAVYYCARSQLGRRFDYWGQGTLVTVSS
VL: DIQMTQSPSSLSASVGDRVTITCKASQDVRTGVAWYQQKPGKAPKLLIYSASYRNTGVPSRFSGSGSGTDFTFTISSLQPEDIATYYCQQHYSPPYTFGGGTKVEIK
B2: humanized Y1238 hz2 (hz-HC1/hz-LC2) (antibody, IgG1, V domains shown)
VH: B1 VH
VL: B1 VL with G66R
B3: humanized Y1238 hz3 (hz-HC1/hz-LC3) (antibody, IgG1, V domains shown)
VH: B1 VH
VL: B1 VL with K42Q, A43S, G66R, T85V
B4: humanized Y1238 hz4 (hz-HC1/hz-LC4) (antibody, IgG1, V domains shown)
VH: B1 VH
VL: B1 VL with K42Q, A43S, G66R, P80A, T85V
B5: humanized Y1238 hz5 (hz-HC1/hz-LC5) (antibody, IgG1, V domains shown)
VH: B1 VH
VL: B1 VL with K42Q, G66R, T85V
B6: humanized Y1238 hz6 (hz-HC2/hz-LC1) (antibody, IgG1, V domains shown)
VH: B1 VH with R72A
VL: B1 VL
B7: humanized Y1238 hz7 (hz-HC2/hz-LC2) (antibody, IgG1, V domains shown)
VH: B1 VH with R72A
VL: B1 VL with G66R
B8: humanized Y1238 hz8 (hz-HC2/hz-LC3) (antibody, IgG1, V domains shown)
VH: B1 VH with R72A
VL: B1 VL with K42Q, A43S, G66R, T85V
B9: humanized Y1238 hz9 (hz-HC2/hz-LC4) (antibody, IgG1, V domains shown)
VH: B1 VH with R72A
VL: B1 VL with K42Q, A43S, G66R, P80A, T85V
B10: humanized Y1238 hz10 (hz-HC2/hz-LC5) (antibody, IgG1, V domains shown)
VH: B1 VH with R72A
VL: B1 VL with K42Q, G66R, T85V
B11: humanized Y1238 hz16 (hz-HC4/hz-LC1) (antibody, IgG1, V domains shown)
VH: B1 VH with R72A, T74K
VL: B1 VL
B12: humanized Y1238 hz17 (hz-HC4/hz-LC2) (antibody, IgG1, V domains shown)
VH: B1 VH with R72A, T74K
VL: B1 VL with G66R
B13: humanized Y1238 hz18 (hz-HC4/hz-LC3) (antibody, IgG1, V domains shown)
VH: B1 VH with R72A, T74K
VL: B1 VL with K42Q, A43S, G66R, T85V
B14: humanized Y1238 hz19 (hz-HC4/hz-LC4) (antibody, IgG1, V domains shown)
VH: B1 VH with R72A, T74K
VL: B1 VL with K42Q, A43S, G66R, P80A, T85V
B15: humanized Y1238 hz20 (hz-HC4/hz-LC5) (antibody, IgG1, V domains shown)
VH: B1 VH with R72A, T74K
VL: B1 VL with K42Q, G66R, T85V
B16: humanized Y1238 hz21 (hz-HC5/hz-LC1) (antibody, IgG1, V domains shown)
VH: B1 VH with A40R, R72A, T74K
VL: B1 VL
B17: humanized Y1238 hz22 (hz-HC5/hz-LC2) (antibody, IgG1, V domains shown)
VH: B1 VH with A40R, R72A, T74K
VL: B1 VL with G66R
B18: humanized Y1238 hz23 (hz-HC5/hz-LC3) (antibody, IgG1, V domains shown)
VH: B1 VH with A40R, R72A, T74K
VL: B1 VL with K42Q, A43S, G66R, T85V
B19: humanized Y1238 hz24 (hz-HC5/hz-LC4) (antibody, IgG1, V domains shown)
VH: B1 VH with A40R, R72A, T74K
VL: B1 VL with K42Q, A43S, G66R, P80A, T85V
B20: humanized Y1238 hz25 (hz-HC5/hz-LC5) (antibody, IgG1, V domains shown)
VH: B1 VH with A40R, R72A, T74K
VL: B1 VL with K42Q, G66R, T85V
B21: humanized Y1238 hz26 (hz-HC6/hz-LC1) (antibody, IgG1, V domains shown)
VH: B1 VH with A40R, M70L, R72A, T74K
VL: B1 VL
B22: humanized Y1238 hz27 (hz-HC6/hz-LC2) (antibody, IgG1, V domains shown)
VH: B1 VH with A40R, M70L, R72A, T74K
VL: B1 VL with G66R
B23: humanized Y1238 hz28 (hz-HC6/hz-LC3) (antibody, IgG1, V domains shown)
VH: B1 VH with A40R, M70L, R72A, T74K
VL: B1 VL with K42Q, A43S, G66R, T85V
B24: humanized Y1238 hz29 (hz-HC6/hz-LC4) (antibody, IgG1, V domains shown)
VH: B1 VH with A40R, M70L, R72A, T74K
VL: B1 VL with K42Q, A43S, G66R, P80A, T85V
B25: humanized Y1238 hz30 (hz-HC6/hz-LC5) (antibody, IgG1, V domains shown)
VH: B1 VH with A40R, M70L, R72A, T74K
VL: B1 VL with K42Q, G66R, T85V
B26: humanized Y1238 hz31 (hz-HC7/hz-LC1) (antibody, IgG1, V domains shown)
VH: B1 VH with K12V, A40R, R72A, T74K, I76S, E82Q, Y95F
VL: B1 VL
B27: humanized Y1238 hz32 (hz-HC7/hz-LC2) (antibody, IgG1, V domains shown)
VH: B1 VH with K12V, A40R, R72A, T74K, I76S, E82Q, Y95F
VL: B1 VL with G66R
B28: humanized Y1238 hz33 (hz-HC7/hz-LC3) (antibody, IgG1, V domains shown)
VH: B1 VH with K12V, A40R, R72A, T74K, I76S, E82Q, Y95F
VL: B1 VL with K42Q, A43S, G66R, T85V
B29: humanized Y1238 hz34 (hz-HC7/hz-LC4) (antibody, IgG1, V domains shown)
VH: B1 VH with K12V, A40R, R72A, T74K, I76S, E82Q, Y95F
VL: B1 VL with K42Q, A43S, G66R, P80A, T85V
B30: humanized Y1238 hz35 (hz-HC7/hz-LC5) (antibody, IgG1, V domains shown)
VH: B1 VH with K12V, A40R, R72A, T74K, I76S, E82Q, Y95F
VL: B1 VL with K42Q, G66R, T85V
B31: humanized Y1238 hz36 (hz-HC8/hz-LC1) (antibody, IgG1, V domains shown)
VH: B1 VH with K12V, A40R, M70L, R72A, T74K, I76S, E82Q, Y95F
VL: B1 VL
B32: humanized Y1238 hz37 (hz-HC8/hz-LC2) (antibody, IgG1, V domains shown)
VH: B1 VH with K12V, A40R, M70L, R72A, T74K, I76S, E82Q, Y95F
VL: B1 VL with G66R
B33: humanized Y1238 hz38 (hz-HC8/hz-LC3) (antibody, IgG1, V domains shown)
VH: B1 VH with K12V, A40R, M70L, R72A, T74K, I76S, E82Q, Y95F
VL: B1 VL with K42Q, A43S, G66R, T85V
B34: humanized Y1238 hz39 (hz-HC8/hz-LC4) (antibody, IgG1, V domains shown)
VH: B1 VH with K12V, A40R, M70L, R72A, T74K, I76S, E82Q, Y95F
VL: B1 VL with K42Q, A43S, G66R, P80A, T85V

Protein sequences, listed by entry. Tags and fused reporters are not part of them. Lines headed by an entry give the natural chain unless they say otherwise; changes in a name come on top.
UniProt P25942: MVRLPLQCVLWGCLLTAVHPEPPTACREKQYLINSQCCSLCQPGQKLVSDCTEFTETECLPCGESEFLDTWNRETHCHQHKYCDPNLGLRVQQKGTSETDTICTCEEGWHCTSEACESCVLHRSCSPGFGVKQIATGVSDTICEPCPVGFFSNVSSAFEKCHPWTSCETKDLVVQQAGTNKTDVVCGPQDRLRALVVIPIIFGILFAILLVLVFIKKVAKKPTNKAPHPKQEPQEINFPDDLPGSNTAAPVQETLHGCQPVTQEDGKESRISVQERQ

What follows are binders tested against human-CD40 monomer (human) (UniProt P25942) (assay: SPR 2 pt screen).

**Q.** With B1 as the binder, how does the binding read?
**A.** binds

**Q.** With B2 as the binder, how does the binding read?
**A.** binds

**Q.** For B3, which binding is on record?
**A.** binds

**Q.** For B4, which binding is on record?
**A.** binds

**Q.** B5 was tested. Which binding did it give?
**A.** binds

**Q.** How did the binding turn out when B6 was run?
**A.** binds

**Q.** Which binding does the source give for B7 here?
**A.** binds

**Q.** B8 was tested. Which binding did it give?
**A.** binds

**Q.** How did the binding turn out when B9 was run?
**A.** binds

**Q.** For B10, which binding is on record?
**A.** binds

**Q.** With B11 as the binder, how does the binding read?
**A.** binds

**Q.** With B12 as the binder, how does the binding read?
**A.** binds

**Q.** With B13 as the binder, how does the binding read?
**A.** binds

**Q.** Which binding does the source give for B14 here?
**A.** binds

**Q.** With B15 as the binder, how does the binding read?
**A.** binds

**Q.** For B16, which binding is on record?
**A.** binds

**Q.** For B17, which binding is on record?
**A.** binds

**Q.** Which binding does the source give for B18 here?
**A.** binds

**Q.** With B19 as the binder, how does the binding read?
**A.** binds

**Q.** Which binding does the source give for B20 here?
**A.** binds

**Q.** B21 was tested. Which binding did it give?
**A.** binds

**Q.** With B22 as the binder, how does the binding read?
**A.** binds

**Q.** How did the binding turn out when B23 was run?
**A.** binds

**Q.** For B24, which binding is on record?
**A.** binds

**Q.** B25 was tested. Which binding did it give?
**A.** binds

**Q.** B26 was tested. Which binding did it give?
**A.** binds

**Q.** For B27, which binding is on record?
**A.** binds

**Q.** Which binding does the source give for B28 here?
**A.** binds

**Q.** Which binding does the source give for B29 here?
**A.** binds

**Q.** Which binding does the source give for B30 here?
**A.** binds

**Q.** Which binding does the source give for B31 here?
**A.** binds

**Q.** With B32 as the binder, how does the binding read?
**A.** binds

**Q.** For B33, which binding is on record?
**A.** binds

**Q.** For B34, which binding is on record?
**A.** binds

From patent US20230322941A1
